Several values for one entry are separate records, joined by “and”; a condition that tells them apart may be missing. Equal values may be shown once. This is one part of the list. Further columns of the screen follow, without active or inactive calls. Compounds called inactive in the main read-out are mostly missing here. The note in brackets gives the kind of curve behind each potency; many fits are weak.
Assay: qHTS Assay for Modulators of Lamin A Splicing
Settings: HeLa LMNA splicing GFP/RFP minigene ratio, 48 h
How it was run: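 S3 HeLa cells stably expressing lamin A-EGFP splicing minigene plus DsRed2, 600 cells/well, 48 h compound exposure at 37C. Laser-scanning cytometry; analysed as GFP (500-530 nm)/RFP (575-640 nm) total intensity ratio; 0.5% DMSO vehicle.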

[1] = measured here: GFP splicing reporter channel
[2] = measured here: RFP viability control channel

| SMILES | AC50 [1] | AC50 [2] |
| --- | --- | --- |
| Cn1nnnc1SCCCNCc1cc(Br)ccc1OCc1ccccc1 | 35.5 µM [falling, partial curve, poor fit] | – |
| COc1ccc(/C=C\C(=O)NCc2ccc3c(c2)cc(C)n3C)cc1OC | 3.16 µM [rising, single point] | 3.55 µM [rising, single point] |
| Cc1nn(Cc2ccccc2)c(C)c1NC(=O)c1ccc([N+](=O)[O-])cc1[N+](=O)[O-] | 17.8 µM [rising, single point] | 35.5 µM [rising, single point] |
| COc1cc2c(cc1OC)-c1cc(=Nc3c(C)cc(C)cc3C)n(C)c(=O)n1CC2 | 15.8 µM [falling, single point] | 15.8 µM [falling, single point] |
| Fc1cccc(CN2CCN(Cc3nc(CCc4ccccc4)no3)CC2)c1 | 15.8 µM [falling, single point] | – |
| CCc1nc(C)cn1S(=O)(=O)c1cc(OC)c(C)cc1C | – | 17.8 µM [rising, single point] |
| CCc1cc(C(=O)NNC(=S)NCc2ccccc2)cs1 | 12.6 µM [rising, partial curve, poor fit] | 17.8 µM [rising, single point] |
| COc1ccc(N2CCN(C(c3ccccc3)c3nnnn3Cc3ccc(F)cc3)CC2)cc1 (stereo not drawn) | – | 15.8 µM [rising, single point] |
| COC(=O)CCC(=O)Oc1ccc(OC(=O)CCC(=O)OC)cc1 | 12.6 µM [rising, partial curve, poor fit] | 20 µM [rising, single point] |
| C/C(=N\NS(=O)(=O)c1ccccc1)c1cc(Cl)cc(Cl)c1O | 35.5 µM [falling, single point] | 35.5 µM [falling, partial curve, poor fit] |
| Fc1ccc(C(OCCCc2cnc[nH]2)c2ccc(F)cc2)cc1 | 11.2 µM [falling, partial curve, poor fit] | – |
| CCCCN(C)CC(O)Cn1cc(/C=C/C(=O)c2cccs2)c2ccccc21 (stereo not drawn) | 1.26 µM [rising, single point] | 11.2 µM [rising, partial curve] |
| Cc1[nH]c2ccccc2c1SCC(=O)N1CCN(c2ccccc2)CC1 | – | 7.08 µM [rising, full curve] |
| O=C(Nc1ccccc1)c1cccc(S(=O)(=O)Nc2ccccn2)c1 | 12.6 µM [rising, partial curve] | 35.5 µM [rising, single point] |
| C/C(Cn1nnc([N+](=O)[O-])n1)=N\NC(=O)c1ccccc1Cl | 12.6 µM [falling, partial curve, poor fit] | – |
| O=C(c1ccncc1)c1ccc(N2CCN(C3CC(=O)N(Cc4ccccc4)C3=O)CC2)cc1 (stereo not drawn) | – | 14.1 µM [rising, single point] |
| CCNC(=O)N1CCN(CCCC(c2ccc(F)cc2)c2ccc(F)cc2)CC1 | – | 0.000891 µM [falling, full curve, poor fit] |
| NC(=O)c1ccc(-c2ccc(Br)cc2)o1 | 3.55 µM [falling, full curve, poor fit] | 3.98 µM [falling, full curve] |
| CCOC(=O)N1CCC(Nc2ccc(N3C(=O)C4CCCCC4C3=O)cc2[N+](=O)[O-])CC1 (stereo not drawn) | – | 0.501 µM [rising, full curve, poor fit] |
| O=C1c2ccccc2C(=O)N1CCCc1c[nH]c2ccc(Cl)cc12 | – | 1.41 µM [rising, partial curve] |
| O=C(N/C(=C\c1ccccc1)C(=O)N1CCCCCC1)c1ccccc1 | 0.0112 µM [rising, full curve, poor fit] | – |
| Cc1cc(C)cc(-n2nnnc2SCC(=O)Nc2cccc(NC(=O)c3ccco3)c2)c1 | – | 14.1 µM [rising, single point] |
| Cc1ccc(C)c(NC(=O)Cn2cnc3c(oc4ccccc43)c2=O)c1 | 8.91 µM [rising, partial curve, poor fit] | – |
| COc1ccc(CCNC(=O)Cn2cc(C(F)(F)F)cc(Cl)c2=O)cc1 | 0.0501 µM [rising, full curve, poor fit] | – |
| CCc1ccc(C2=CC(c3cccc(C)c3)n3c(nc4ccccc43)N2)cc1 (stereo not drawn) | 7.08 µM [rising, partial curve] | 22.4 µM [rising, single point] |
| Cc1ccc(/C=C/C(=O)N2CCN(c3ccc(F)cc3)CC2)o1 | 12.6 µM [rising, partial curve] | 14.1 µM [rising, partial curve] |
| CC(C)(C)c1ccc(-c2noc(CCC(=O)NCC3CCCO3)n2)cc1 (stereo not drawn) | 12.6 µM [rising, single point] | 22.4 µM [rising, single point] |

Single values from the list:
AC50 [1] with Fc1ccc(C(OCCCc2cnc[nH]2)c2ccc(F)cc2)cc1 is entered as 11.2 µM [falling, partial curve, poor fit]
AC50 [1] with COc1ccc(CCNC(=O)Cn2cc(C(F)(F)F)cc(Cl)c2=O)cc1 is entered as 0.0501 µM [rising, full curve, poor fit]

(list continues)

| SMILES | AC50 [1] | AC50 [2] |
| --- | --- | --- |
| O=[N+]([O-])c1c(NCCO)cc(N2CCN(Cc3ccc4c(c3)OCO4)CC2)c2nonc12 | – | 28.2 µM [rising, single point] |
| COc1cccc(/C=C/C(=O)N2CCN(c3n[nH]c(=O)[nH]c3=O)CC2)c1OC | – | 14.1 µM [rising, partial curve, poor fit] |
| NC(=O)C1CCN(C(=O)N2c3ccccc3Sc3ccccc32)CC1 | – | 35.5 µM [rising, single point] |
| CCc1ccc2oc(C(=O)NCC(c3ccc(Cl)cc3)N3CCOCC3)c(C)c2c1 (stereo not drawn) | – | 12.6 µM [rising, single point] |
| CCOC(=O)c1c(C)oc2nc(C)nc(Nc3cc(C)cc(C)c3)c12 | 0.0398 µM [falling, full curve] | – |
| COc1ccc2cc(C(=O)C3CCCN(C(=O)/C=C/c4ccccn4)C3)ccc2c1 (stereo not drawn) | – | 0.562 µM [falling, full curve, poor fit] |
| O=C1CCC(c2ccc(-n3ccnc3)cc2)=NN1 | 0.708 µM [rising, full curve, poor fit] | – |
| Cc1cccc(Nc2nc(N)nc(CN3CCN(Cc4ccc5c(c4)OCO5)CC3)n2)c1 | 17.8 µM [rising, partial curve, poor fit] | 12.6 µM [rising, single point] |
| COCCn1c(=NC(=O)/C=C/c2ccccc2)sc2cc(NC(C)=O)ccc21 | – | 0.00447 µM [rising, full curve, poor fit] |
| S=C(NCc1ccco1)N1CCN(c2ccccn2)CC1 | – | 0.0112 µM [falling, full curve, poor fit] |
| Cc1ccc(-c2nc(N)sc2-c2ccc(C)cc2)cc1 | 22.4 µM [falling, partial curve, poor fit] | 35.5 µM [falling, partial curve, poor fit] |
| COc1ccc(C(=O)c2cnc3cc4c(cc3c2C)OCO4)cc1 | – | 22.4 µM [rising, single point] |
| Cc1sc2nc(CN3CCOCC3)[nH]c(=S)c2c1C | – | 5.62 µM [rising, single point] |
| Cn1c(=O)c(-c2ccccc2)c(O)c2ccccc21 | 0.794 µM [rising, full curve, poor fit] | 0.708 µM [rising, full curve] |
| COC1=C(OC)C(=O)C(CCCCCCCCCCO)=C(C)C1=O | 20 µM [falling, partial curve, poor fit] and 17.8 µM [falling, partial curve] | 31.6 µM [falling, partial curve, poor fit] and 22.4 µM [falling, partial curve, poor fit] |
| CC(C)(C)c1ccc(/C=N/NC(=S)NC2CCCCC2)cc1 | 12.6 µM [rising, partial curve] | 20 µM [rising, partial curve] |
| O=C(c1ccc(CS(=O)(=O)c2cccc(C(F)(F)F)c2)o1)N1CCN(c2ccccn2)CC1 | – | 10 µM [rising, partial curve, poor fit] |
| C(#Cc1ccc(C#CCN2CCCC2)cc1)CN1CCCC1 | – | 3.55 µM [rising, full curve, poor fit] |
| FC(F)(F)c1nnc2c(Sc3ccc(Cl)cc3)nc3ccccc3n12 | 5.01 µM [falling, full curve] | 6.31 µM [falling, full curve] |
| CCN(CC)S(=O)(=O)c1ccc(N2CCOCC2)c(NC(=O)Cc2ccccc2F)c1 | – | 5.01 µM [rising, single point] |
| O=C(Nc1ccccc1Cl)c1ccc(F)c(S(=O)(=O)NCc2ccc(Cl)c(Cl)c2)c1 | – | 35.5 µM [rising, single point] |
| Cc1ccc(N2C(=O)C3C4C=CC(CNC(=S)N5CCN(c6cccc(C)c6)C(C)C5)(O4)C3C2=O)cc1 (stereo not drawn) | – | 5.01 µM [rising, partial curve, poor fit] |
| OB(O)O | – | 0.0447 µM [rising, full curve, poor fit] |
| Cc1c(C(=O)c2ccccc2)c2ccccn2c1CCc1ccccn1 | 0.112 µM [falling, full curve, poor fit] | – |
| CCOc1ccc2nc(NC(=O)CN3CCN(c4ccccn4)CC3)sc2c1 | – | 14.1 µM [rising, partial curve] |
| CN(C(=O)CSc1nnc(-c2cccs2)o1)C1CCS(=O)(=O)C1 (stereo not drawn) | 6.31 µM [rising, partial curve, poor fit] | – |
| CN(C)/C=C/C(=O)c1nnn(C2CCCCC2)c1NC1CCCCC1 | 14.1 µM [rising, partial curve] | 15.8 µM [rising, partial curve] |
